The text below walks through data of PubChem BioAssay AID1656 (Sanford-Burnham Center for Chemical Genomics, 2009).

The other results are listed elsewhere or left out.

The test in a line: oleate-induced lipid droplet accumulation in AML12 cells – imaging, high-throughput imaging, BODIPY stain, primary screen (AID 1656).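 Further: cells counted across two imaged fields per well.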 As to conditions: AML12 mouse hepatocytes, oleate lipid droplets, measured here: cell count, cytotoxicity flag, at 6.5 µM.
For `O=P(Nc1nccs1)(c1ccccc1)c1nc2ccccc2s1` (centres undefined), the cell count is 617 cells.

As to `CS(=O)(=O)c1cc([N+](=O)[O-])c2no[n+]([O-])c2c1`, the cell count came to 703 cells.

On to `Nc1ccccc1[As](=O)(O)c1ccccc1`, for which the cell count worked out at 653 cells.

Compound `O=C(O)COc1ccc([As](=O)(O)O)cc1[N+](=O)[O-]` showed a cell count of 826 cells.

As to `Cc1cc(C)cc(OP(C)(=O)Nc2ccccn2)c1` (centres undefined), the cell count turned out to be 813 cells.

`CP(=O)(Nc1cccc(Br)c1)Oc1ccccc1` (centres undefined) registered a cell count of 714 cells.

In the case of `Cc1ccc(NCCc2c([N+](=O)[O-])cc([N+](=O)[O-])cc2[N+](=O)[O-])cc1`, the cell count amounted to 543 cells.

In the case of `Nc1cccc2c([As](=O)(O)O)cccc12`, the cell count was determined as 825 cells.

Compound `Cc1ccc(C)c(NP(C)(=O)Oc2ccccc2)c1` (centres undefined) yielded a cell count of 751 cells.

The compound `CCCOP(=S)(Nc1nc(N)cc(=O)[nH]1)OCCC` had a cell count of 615 cells.

The compound `CCOP(=O)(Nc1cccc2ccccc12)OCC` returned a cell count of 750 cells.

Turning to `O=C(OC1CN2CCC1CC2)c1ccc(Cl)cc1` (centres undefined), the cell count stood at 716 cells.

Compound `O=[As](O)(O)c1cccnc1` returned a cell count of 605 cells.

As for `COc1cc(C(=O)NCC2(N3CCOCC3)CCCCC2)cc(Cl)c1OC(C)C`, the cell count worked out at 652 cells.

Take `COc1ccccc1OP(C)(=O)Nc1cccc(Br)c1` (centres undefined): the cell count came to 685 cells.

`CS(=O)(=O)c1ccc(Cl)c(NC(=O)COC(=O)C(O)(c2ccccc2)c2ccccc2)c1` showed a cell count of 712 cells.

The compound `Cc1cccc(OCC(=O)OC2CN3CCC2CC3)c1` (centres undefined) came in with a cell count of 714 cells.

`O=[As](O)(c1cccc(O)c1)c1cccc(O)c1` yielded a cell count of 728 cells.

As to `Cc1cc(C)cc(OP(C)(=O)Nc2ccc(C)cc2C)c1` (centres undefined), the cell count was 769 cells.

Compound `CCOC(=O)c1ccc(NP(C)(=O)Oc2cc(C)cc(C)c2)cc1` (centres undefined) came in with a cell count of 670 cells.

Take `CC(C)/C=N\N=C(\N)N[N+](=O)[O-]`: the cell count is 689 cells.

`CN(C(=O)Cc1ccc(Cl)c(Cl)c1)[C@@H]1CCCC[C@H]1N1CCCC1` gave a cell count of 743 cells.

On to `O=[As](O)(c1ccccc1Br)c1ccccc1Br`, for which the cell count is 736 cells.

Take `O=P1(Nc2ccccn2)COc2ccccc2OC1`: the cell count stood at 711 cells.

With `CCC1=CC2Cc3nc4ccc(Cl)cc4c(N)c3C(C1)C2` (centres undefined), the cell count worked out at 716 cells.

In turn, `O=[N+]([O-])c1cc([N+](=O)[O-])c(-n2nnc3ccccc32)c([N+](=O)[O-])c1` registered a cell count of 686 cells.

`CCOP(=O)(NC(=NC(C)c1ccccc1)NC(C)c1ccccc1)OCC` (centres undefined) registered a cell count of 825 cells.

The compound `CCOP(=O)(Nc1ccc(C)cn1)OCC` yielded a cell count of 681 cells.

The compound `CC(C)(C)C(=O)NC(Sc1ncccn1)C(Cl)(Cl)Cl` (centres undefined) displayed a cell count of 738 cells.

In turn, `CN1CCCCC1COC(=O)C1(O)c2ccccc2CCc2ccccc21` (centres undefined) registered a cell count of 662 cells.

Compound `O=P1(Nc2ncccn2)COc2ccccc2OC1` returned a cell count of 752 cells.

`CCCOc1ccc(NP(C)(=O)Oc2ccc(Cl)cc2)cc1` (centres undefined) yielded a cell count of 682 cells.

Take `CP(=O)(Nc1ccc(SC(F)(F)F)cc1)Oc1ccccc1` (centres undefined): the cell count is 744 cells.

Turning to `Nc1cccc([As](=O)(O)c2ccccc2)c1`, the cell count was 713 cells.

`Cc1ccc(OCC(=O)OC2CN3CCC2CC3)cc1` (centres undefined) returned a cell count of 655 cells.

In turn, `O=[As](O)(c1cccs1)c1cccs1` registered a cell count of 687 cells.

As to `O=P1(Nc2ccc(Br)cn2)COc2ccccc2OC1`, the cell count came to 769 cells.

Compound `Cc1nn(-c2ccccc2)c2c1P(=O)(N1CCOCC1)N(C)C(c1ccccc1)=N2` (centres undefined) came in with a cell count of 708 cells.

For the compound `CC1CCC(C(C)C)C(OP(=O)(Nc2ccccn2)c2ccccc2)C1` (centres undefined), the cell count was 690 cells.

`COc1cc(C2NCCC3(OCCO3)C2(C)C)cc(OC)c1OC.O=[N+]([O-])c1cc([N+](=O)[O-])c(O)c([N+](=O)[O-])c1` (centres undefined) showed a cell count of 617 cells.

Turning to `CN(C)C1(CNC(=O)c2ccc(S(C)(=O)=O)cc2)CCCCC1`, the cell count came to 733 cells.

With `O=[N+]([O-])c1cc([N+](=O)[O-])c(Nc2nnnn2CCO)c([N+](=O)[O-])c1`, the cell count came out at 717 cells.

The compound `CCOC(=O)C(CC)C1=NC(C)(C)Cc2ccccc21.O=[N+]([O-])c1cc([N+](=O)[O-])c(O)c([N+](=O)[O-])c1` (centres undefined) had a cell count of 747 cells.

`O=C(/C=C/c1ccccc1)OC1CN2CCC1CC2` (centres undefined) registered a cell count of 690 cells.
